# Laboratory results: patent US20260085094A1, “STAPLED PEPTIDE AND USE THEREOF” (priority 2021, published 2026)
# Protein sequences, listed by entry. Tags and fused reporters are not part of them. Residues count along the entry.
# UniProt P47871, 26-477, species assumed: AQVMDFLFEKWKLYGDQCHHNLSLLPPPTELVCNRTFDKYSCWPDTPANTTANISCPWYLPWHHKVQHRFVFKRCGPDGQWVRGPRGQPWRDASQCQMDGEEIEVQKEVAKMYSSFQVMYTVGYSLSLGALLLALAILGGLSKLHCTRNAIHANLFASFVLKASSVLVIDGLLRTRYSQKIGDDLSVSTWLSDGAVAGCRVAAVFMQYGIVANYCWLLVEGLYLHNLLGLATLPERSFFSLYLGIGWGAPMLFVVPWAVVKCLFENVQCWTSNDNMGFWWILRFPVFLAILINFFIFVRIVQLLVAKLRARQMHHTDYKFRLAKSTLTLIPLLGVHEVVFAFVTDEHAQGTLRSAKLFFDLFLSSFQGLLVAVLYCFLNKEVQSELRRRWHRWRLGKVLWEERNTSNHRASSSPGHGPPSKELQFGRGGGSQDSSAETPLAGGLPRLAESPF
# UniProt P43220, 24-463, species assumed: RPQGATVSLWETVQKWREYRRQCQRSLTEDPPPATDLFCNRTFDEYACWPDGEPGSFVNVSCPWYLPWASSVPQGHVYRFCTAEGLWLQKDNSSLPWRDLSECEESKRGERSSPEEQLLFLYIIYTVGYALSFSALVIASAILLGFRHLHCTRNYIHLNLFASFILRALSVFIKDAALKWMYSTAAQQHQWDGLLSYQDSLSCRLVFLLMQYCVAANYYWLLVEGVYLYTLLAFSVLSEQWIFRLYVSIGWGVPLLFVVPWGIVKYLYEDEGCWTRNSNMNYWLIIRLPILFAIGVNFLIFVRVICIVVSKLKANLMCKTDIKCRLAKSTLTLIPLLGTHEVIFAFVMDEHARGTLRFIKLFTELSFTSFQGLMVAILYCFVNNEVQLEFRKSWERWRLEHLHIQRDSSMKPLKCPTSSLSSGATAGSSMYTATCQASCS
# At least one peptide structure holds a part that was inferred or is arguable (an end, a ring closure or a residue). For part of these data: For at least one compound, name, drawing or mass did not settle the structure.
# Legend:
# db/db mice = assay: Efficacy study in db/db mice (glycemic control); format: in vivo; settings: SC 15 nmol/kg once daily, 4 weeks
# DIO mice = assay: Efficacy study in DIO mice (weight loss); format: in vivo; settings: SC 10 nmol/kg once every three days
# GIPR = target: T1, GIPR (Homo sapiens, UniProt P48546); assay: In vitro GIPR agonistic activity test (cAMP assay); format: cell-based; settings: GIPR CHO cell line, read-out: GIP-1 EC50
# T1 construct: host or cells: CHO
# T1 sequence (P48546 22-466): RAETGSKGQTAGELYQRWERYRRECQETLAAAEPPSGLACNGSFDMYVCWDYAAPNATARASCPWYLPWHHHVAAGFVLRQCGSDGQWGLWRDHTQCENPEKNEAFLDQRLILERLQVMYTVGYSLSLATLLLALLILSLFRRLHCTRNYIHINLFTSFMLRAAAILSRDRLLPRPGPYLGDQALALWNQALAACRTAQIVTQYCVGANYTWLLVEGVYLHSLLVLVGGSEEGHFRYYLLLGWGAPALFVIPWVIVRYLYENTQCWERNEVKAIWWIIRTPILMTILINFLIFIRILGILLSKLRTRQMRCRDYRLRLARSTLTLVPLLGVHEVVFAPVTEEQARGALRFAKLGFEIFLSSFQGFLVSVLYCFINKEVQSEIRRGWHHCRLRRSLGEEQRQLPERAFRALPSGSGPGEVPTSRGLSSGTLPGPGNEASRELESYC
# Method: (§1) [table] The compounds to be tested were diluted 4-fold at 10 wells, starting from an initial concentration of 30 μM. […] The TopSeal-A film was removed, and readout was performed on EnVision.
# GCGR = target: T2, GCGR (Homo sapiens, UniProt P47871); assay: In vitro GCGR agonistic activity test (cAMP assay); format: cell-based; settings: GCGR HEK293 cell line, read-out: GCG EC50
# T2 construct: host or cells: HEK293
# Method: as §1
# GLP-1R = target: T3, GLP-1R (Homo sapiens, UniProt P43220); assay: In vitro GLP-1R agonistic activity test (cAMP assay); format: cell-based; settings: GLP-1R HEK293 cell line
# T3 construct: host or cells: HEK293
# Method: as §1
structure (smiles),measurement,setting,value
CC[C@H](C)[C@H](NC(=O)[C@H](Cc1ccccc1)NC(=O)[C@H](C)NC(=O)[C@@H]1CCCCNC(=O)CN(C(=O)COCCOCCNC(=O)COCCOCCNC(=O)CC[C@H](NC(=O)CCCCCCCCCCCCCCCCCCC(=O)O)C(=O)O)CC(=O)NCCCC[C@H](NC(=O)[C@H](CCCCN)NC(=O)[C@H](CC(=O)O)NC(=O)[C@H](CC(C)C)NC(=O)[C@](C)(CC(C)C)NC(=O)[C@@H](NC(=O)[C@H](CO)NC(=O)[C@H](Cc2ccc(O)cc2)NC(=O)[C@H](CC(=O)O)NC(=O)[C@H](CO)NC(=O)[C@@H](NC(=O)[C@H](Cc2ccccc2)NC(=O)[C@@H](NC(=O)CNC(=O)[C@H](CCC(N)=O)NC(=O)C(C)(C)NC(=O)[C@@H](N)Cc2ccc(O)cc2)[C@@H](C)O)[C@@H](C)O)[C@@H](C)CC)C(=O)N[C@@H](C)C(=O)N[C@@H](CCC(N)=O)C(=O)N1)C(=O)N[C@@H](CCC(=O)O)C(=O)N[C@@H](Cc1ccc(O)cc1)C(=O)N[C@@H](CC(C)C)C(=O)N[C@@H](CC(C)C)C(=O)N[C@@H](CCC(=O)O)C(=O)NCC(=O)NCC(=O)N1CCC[C@H]1C(=O)N[C@@H](CO)C(=O)N[C@@H](CO)C(=O)NCC(=O)N[C@@H](C)C(=O)N1CCC[C@H]1C(=O)N1CCC[C@H]1C(=O)N1CCC[C@H]1C(=O)N[C@@H](CO)C(N)=O [WX001],ΔHbA1c % (compared to vehicle group after four weeks of continuous administration),db/db mice,−38.9%
same,ΔWeight % (compared to vehicle group after 22 days),DIO mice,−15%
CC[C@H](C)[C@H](NC(=O)[C@H](Cc1ccccc1)NC(=O)[C@H](C)NC(=O)C(C)(C)NC(=O)[C@@H]1CCCCNC(=O)CN(C(=O)COCCOCCNC(=O)COCCOCCNC(=O)CC[C@H](NC(=O)CCCCCCCCCCCCCCCCCCC(=O)O)C(=O)O)CC(=O)NCCCC[C@H](NC(=O)[C@H](CC(=O)O)NC(=O)[C@H](CC(C)C)NC(=O)[C@](C)(CC(C)C)NC(=O)[C@@H](NC(=O)[C@H](CO)NC(=O)[C@H](Cc2ccc(O)cc2)NC(=O)[C@H](CC(=O)O)NC(=O)[C@H](CO)NC(=O)[C@@H](NC(=O)[C@H](Cc2ccccc2)NC(=O)[C@@H](NC(=O)CNC(=O)[C@H](CCC(N)=O)NC(=O)C(C)(C)NC(=O)[C@@H](N)Cc2ccc(O)cc2)[C@@H](C)O)[C@@H](C)O)[C@@H](C)CC)C(=O)N[C@@H](CCCCN)C(=O)N[C@@H](C)C(=O)N1)C(=O)N[C@@H](CCC(=O)O)C(=O)N[C@@H](Cc1ccc(O)cc1)C(=O)N[C@@H](CC(C)C)C(=O)N[C@@H](CC(C)C)C(=O)N[C@@H](CCC(=O)O)C(=O)NCC(=O)NCC(=O)N1CCC[C@H]1C(=O)N[C@@H](CO)C(=O)N[C@@H](CO)C(=O)NCC(=O)N[C@@H](C)C(=O)N1CCC[C@H]1C(=O)N1CCC[C@H]1C(=O)N1CCC[C@H]1C(=O)N[C@@H](CO)C(N)=O [WX002],EC50,GIPR,0.57 nM
same,ΔHbA1c % (compared to vehicle group after four weeks of continuous administration),db/db mice,−40%
same,EC50,GCGR,1 nM
same,ΔWeight % (compared to vehicle group after 22 days),DIO mice,−21%
same,EC50,GLP-1R,0.095 nM
CC[C@H](C)[C@H](NC(=O)[C@H](CO)NC(=O)[C@H](Cc1ccc(O)cc1)NC(=O)[C@H](CC(=O)O)NC(=O)[C@H](CO)NC(=O)[C@@H](NC(=O)[C@H](Cc1ccccc1)NC(=O)[C@@H](NC(=O)CNC(=O)[C@H](CCC(N)=O)NC(=O)C(C)(C)NC(=O)[C@@H](N)Cc1ccc(O)cc1)[C@@H](C)O)[C@@H](C)O)C(=O)N[C@@](C)(CC(C)C)C(=O)N[C@@H](CC(C)C)C(=O)N[C@@H](CC(=O)O)C(=O)N[C@@H](CCCCN)C(=O)N[C@@H](CCCCN)C(=O)N[C@@H](C)C(=O)N[C@@H](CCC(N)=O)C(=O)N[C@H]1CCCCNC(=O)CN(C(=O)COCCOCCNC(=O)COCCOCCNC(=O)CC[C@H](NC(=O)CCCCCCCCCCCCCCCCCCC(=O)O)C(=O)O)CC(=O)NCCCC[C@@H](C(=O)N[C@@H](CCC(=O)O)C(=O)N[C@@H](Cc2ccc(O)cc2)C(=O)N[C@@H](CC(C)C)C(=O)N[C@@H](CC(C)C)C(=O)N[C@@H](CCC(=O)O)C(=O)NCC(=O)NCC(=O)N2CCC[C@H]2C(=O)N[C@@H](CO)C(=O)N[C@@H](CO)C(=O)NCC(=O)N[C@@H](C)C(=O)N2CCC[C@H]2C(=O)N2CCC[C@H]2C(=O)N2CCC[C@H]2C(=O)N[C@@H](CO)C(N)=O)NC(=O)[C@H](Cc2ccccc2)NC(=O)[C@H](C)NC1=O [WX003],EC50,GIPR,0.61 nM
same,EC50,GCGR,> 20 nM
same,EC50,GLP-1R,0.46 nM
CC[C@H](C)[C@H](NC(=O)[C@H](Cc1ccccc1)NC(=O)[C@H](C)NC(=O)C(C)(C)NC(=O)[C@H](CCC(N)=O)NC(=O)[C@H](C)NC(=O)[C@H](CCCCN)NC(=O)[C@H](CCCCN)NC(=O)[C@H](CC(=O)O)NC(=O)[C@H](CC(C)C)NC(=O)[C@](C)(CC(C)C)NC(=O)[C@@H](NC(=O)[C@H](CO)NC(=O)[C@H](Cc1ccc(O)cc1)NC(=O)[C@H](CC(=O)O)NC(=O)[C@H](CO)NC(=O)[C@@H](NC(=O)[C@H](Cc1ccccc1)NC(=O)[C@@H](NC(=O)CNC(=O)[C@H](CCC(N)=O)NC(=O)C(C)(C)NC(=O)[C@@H](N)Cc1ccc(O)cc1)[C@@H](C)O)[C@@H](C)O)[C@@H](C)CC)C(=O)N[C@@H](CCC(=O)O)C(=O)N[C@H]1CCCCNC(=O)CN(C(=O)COCCOCCNC(=O)COCCOCCNC(=O)CC[C@H](NC(=O)CCCCCCCCCCCCCCCCCCC(=O)O)C(=O)O)CC(=O)NCCCC[C@@H](C(=O)NCC(=O)NCC(=O)N2CCC[C@H]2C(=O)N[C@@H](CO)C(=O)N[C@@H](CO)C(=O)NCC(=O)N[C@@H](C)C(=O)N2CCC[C@H]2C(=O)N2CCC[C@H]2C(=O)N2CCC[C@H]2C(=O)N[C@@H](CO)C(N)=O)NC(=O)[C@H](CC(C)C)NC(=O)[C@H](CC(C)C)NC1=O [WX005],ΔHbA1c % (compared to vehicle group after four weeks of continuous administration),db/db mice,−46.3%
same,ΔWeight % (compared to vehicle group after 22 days),DIO mice,−31%
